PubChem BioAssay AID1794844 (National Center for Advancing Translational Sciences (NCATS), 2023)
The whole screen tested about 2,800 compounds, of which fewer than 10 were called active. About 7% were inconclusive and are not listed. Calls follow the shape of the dose curve; as a rule, active = well fitted inhibition curve with a large enough effect; inconclusive = small, poorly fitted or top-dose-only effect; inactive = no such curve, though single readings can be large or run the other way. The list shows a part of the results.

Sequences of proteins named here, by UniProt entry; tags and fusion partners are left off. A change or cut given only in a name is not applied to a line headed by its entry.
UniProt C7C422: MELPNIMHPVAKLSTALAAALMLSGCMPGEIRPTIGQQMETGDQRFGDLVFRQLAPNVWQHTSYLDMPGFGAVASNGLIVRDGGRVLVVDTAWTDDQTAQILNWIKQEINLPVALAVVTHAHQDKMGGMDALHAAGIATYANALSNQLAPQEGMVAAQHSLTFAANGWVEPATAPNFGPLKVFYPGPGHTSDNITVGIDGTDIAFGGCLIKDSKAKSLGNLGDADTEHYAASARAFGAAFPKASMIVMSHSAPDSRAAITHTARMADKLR

Biological target: Metallo-beta-lactamase type 2 (Klebsiella pneumoniae) (UniProt C7C422)
Test: qHTS to identify inhibitors of the New Delhi Metallo-beta-lactamase (NDM): Nitrocefin screen against the machine-based learning selections. Also: % of control where 0% means no effect.
Details: NDM-1 enzyme, nitrocefin hydrolysis, absorbance 485 nm; activity, negative = inhibition: at the top concentration
How it was run: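 Hydrolysis by 2 nM NDM-1 was followed by absorbance after >30 min compound preincubation in HEPES pH 7.0 buffer with 1 uM Zn2SO4. For nitrocefin (16.7 uM, 15 min, 485 nm) and meropenem (50 uM, 30 min, 300 nm), each substrate ran on separate plates.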

activity, negative = inhibition, inactive:
CCN(CC)Cc1nc(C2(O)CCN(C(=O)COc3ccccc3)CC2)cs1 -16.4% [at 57.5 µM], Cc1nc([C@@H]2CN(C3CCN(CCc4ccccc4)CC3)C[C@H]2C(N)=O)n[nH]1 -2%, COc1ccc(OC)c(CN2CCC3(CC2)Nc2ccccc2NC3=O)c1 -1.47%, COCCNC(=O)c1ccc2c(c1)N(C)C(CC(=O)N1CCC(C)CC1)CO2 (centres undefined) 0.0011%, O=C(C1CCCC1)N1CC2CC(C1)[C@H]1CCCC(=O)N1C2 (some centres undefined) -0.336%, Cn1ccc2c(C(=O)NCCC(N)=O)nc(-c3cccc(CO)c3)cc21 7.56% [at 57.5 µM], COc1ccc(CN2CCOC[C@H]2c2ncc(-c3cccnc3)[nH]2)cc1 0.499% [at 57.5 µM], CC1(C)[C@H](Cc2cc(CN3CCN(c4ccccc4)CC3)on2)C[C@@H]1NC(=O)Nc1ccc(F)cc1 -2.47%, COc1ccc(-c2nnc3n2CCN(C(=O)c2ccc(C(F)(F)F)cc2)C3)cc1 4.63%, O=C(c1cccc2[nH]ccc12)N1CCC([C@@H]2CNC[C@H]2CO)CC1 0.894%, COC(=O)[C@@H]1Cc2ncn(Cc3ccccc3)c2CN1S(=O)(=O)c1cccs1 -15.2% [at 57.5 µM], CCCc1ncncc1C(=O)N1CCCC2(CC1)CNC(=O)O2 (centres undefined) 1.43%, CC1=C[C@@H](CC#N)[C@H](C(C)C)C[C@H]1CC(=O)NC1CCCCC1 3.1% [at 57.5 µM], CCn1cnnc1CC1CCN(C(=O)NC)C1 (centres undefined) 9.39%, O=C1OC[C@@H]2CCN(Cc3ccc(Cl)cc3)Cc3ccc(F)cc3N12 -4.45% [at 57.5 µM], CC(C)NC(=O)c1ccnc(-c2nnc3ccc(Nc4ccccc4)nn23)c1 -6.26% [at 57.5 µM], O=C(Cc1c[nH]c2ncc(-c3cccnc3)cc12)NCc1cccc(F)c1 -3.27% [at 57.5 µM], c1ccc(Nc2cc3c(cn2)CN(Cc2ccccn2)CCN3)cc1 25.2% [at 57.5 µM], COc1ccc(CNC[C@H]2Cn3ccnc3CO2)cn1 2.86% [at 76.7 µM], CC(CN1CCCC1)CN(C)c1nc(CCN)nc2ccccc12 (centres undefined) -9.71%, Cn1cc(C(=O)N2CCCC(c3nnnn3C)C2)cn1 (centres undefined) -3.67%, CO[C@@H]1CO[C@H]2[C@@H]1OC[C@@H]2NS(C)(=O)=O -19.3% [at 76.7 µM], O=c1c2nc(-c3ccc(O)c(F)c3)ccc2ncn1-c1ccccc1 -3.87% [at 57.5 µM], COc1ccc(Cl)cc1-c1ccc2c(c1)C(=O)N1CC[C@H](NC(=O)C3CCCC3)[C@H]1C(=O)N2 -12.3%, Oc1ccccc1CN1CCC(O)(c2csc(CN3CCOCC3)n2)CC1 1.53% [at 57.5 µM], CN(C)c1ccc(-c2nnc([C@H]3CCN(Cc4ccco4)C3)o2)cc1 19% [at 57.5 µM], COc1ccc(C(=O)NCc2nnc3ccc(-c4ccc(C)c(C)c4)nn23)cc1 5.93%, O=C(Cc1cccc(Cl)c1)N1CCCC(c2nn(-c3ccccc3)c(=O)[nH]2)C1 (centres undefined) -1.37%, CCn1cc(S(=O)(=O)N2CCCCC2c2nc(-c3ccncc3)n[nH]2)cn1 (centres undefined) -10.8%, COc1ccc(C(=O)N2CC[C@@H](CC(=O)O)[C@@H](CCN3CCCCC3)C2)cc1 9.35% [at 57.5 µM], COc1cccc(-c2ccccc2NC(=O)C2CCN(Cc3cc(F)ccc3F)CC2)c1 5.82%, C[C@H](O)c1c(-c2ccc(Cl)cc2)noc1C(=O)N(C)C -10.1% [at 57.5 µM], Cc1nc2c(c(=O)[nH]1)CCN(C(=O)C1(C)CCc3c(C)c(O)c(C)c(C)c3O1)C2 (centres undefined) -1.2%, CC(C)c1nc2c(c(-c3ccc(O)cc3)n1)CN(C(=O)N(C)C)CC2 -3.66%, COc1ncccc1-c1cnc2[nH]cc(CC(=O)Nc3cccnc3)c2c1 0.6% [at 57.5 µM], CC(NCc1cn(CCC(N)=O)c2ccccc12)c1ccccc1-n1cccn1 (centres undefined) 0%, COc1cc(=O)n2c(c1C(=O)Nc1ccc(F)cc1F)CCCC2 -1.93%, CC1(C)C[C@H](NC(=O)c2ccccc2)[C@@]2(CCC(=O)NCCN3CCOCC3)CC[C@](C)(O)C[C@@H]12 -0.368%, CCC(C)NC(=O)CCN(CC)C(=O)c1cc(C)oc1C (centres undefined) -7.59%, CN(C)c1ccc(CC(=O)N2CC[C@@](C)(O)[C@@H](O)C2)cc1 -1.1%, O=C(NC[C@H]1OC[C@@H](NC2CCCCC2)[C@@H]1O)C1CCCC1 2.39% [at 57.5 µM], CN(Cc1ccccc1)Cc1cc(C[C@H]2CNCC[C@H]2CC(=O)NCc2cccs2)no1 -5.4%, Nc1nc(C2CC(NC(=O)c3csc4c3CCCC4)C2)cc(=O)[nH]1 (centres undefined) -3.14%, COc1ccc(CN2C(=O)O[C@@H]3CN(C4CCCCC4)C[C@@H]32)cc1OC 11.1%, Cc1ccc(CN2CC[C@H](c3nc4cc(C)ccc4o3)C2)cc1 -1.73% [at 57.5 µM], c1ccc(Nc2cc3c(cn2)NCCN(Cc2ccccn2)C3)cc1 -1.09% [at 57.5 µM], COC(=O)c1ccc2c(c1)nc1n2[C@@H](CNC(=O)NC2CCCCC2)COC1 -4.82% [at 57.5 µM], COc1ccc2[nH]c(C(=O)N3CCn4nc(CO)cc4C3)c(C)c2c1 1.35%, CC1(C(=O)NCc2ccncc2)CCc2cnc(NCc3ccccc3)nc21 (centres undefined) -5.86% [at 57.5 µM], CC[C@@H](NC(=O)c1cc(S(N)(=O)=O)ccc1C)C1CC(O)C1 (some centres undefined) -0.119%, Cc1cn2c(=O)cc(CN3CC(=O)N(C)c4ccccc4C3=O)nc2s1 2.81%, CC(C)(O)CCc1cccc(C(=O)NC2CCN(c3ncccc3C#N)CC2)c1 0.121%, CCCCCC(=O)N1CC[C@@H](CC(=O)NCc2cccs2)[C@@H](CC)C1 8.73% [at 57.5 µM], COc1ccc(S(=O)(=O)NC[C@H]2COCc3nc4c(C)cccc4n32)cc1 -1.92% [at 57.5 µM], CNc1cccnc1OC1CCN(S(=O)(=O)c2ccc3c(c2)CCC3)C1 (centres undefined) 7.96%, CCc1n[nH]c(CC2CCN(C(=O)COc3ccc(F)cc3)CC2)n1 -0.784%, O=C(Nc1ccc([C@@H](O)[C@H]2COCC(=O)N2Cc2ccc(F)cc2)cc1)c1ccccc1 5.69% [at 57.5 µM], CN(C)C(C(=O)N1CCN(c2ncccc2C#N)CC1)c1cccc(F)c1 (centres undefined) 0.693%, CC1(C)[C@H](Cc2cc(CC3CCCCC3)on2)C[C@@H]1NC(=O)c1ccccc1 0.0808% [at 57.5 µM], CNC(=O)c1cccc(-c2cnc(Nc3cccnc3)c3c2CCO3)c1 0.884% [at 57.5 µM], C[C@@H](c1ccccc1)N1C(=O)[C@@H]2CN(C(=O)c3ccco3)CCN2C1=O -7.93% [at 57.5 µM], CN1C[C@@H](F)[C@@H](OCc2nc3ccc(C(F)(F)F)cc3[nH]2)C1 2.4% [at 57.5 µM], O=C(O)Cn1ccc2cc(OCc3cccc(-c4ccncc4)c3)cnc21 2.84% [at 57.5 µM], O=C1N(Cc2ccccn2)C[C@H]2CN(Cc3cccc(OC(F)(F)F)c3)CCN12 -1.12% [at 57.5 µM]
